Experimental data: PMC7819943, “Rice protein-binding microarrays: a tool to detect cis-acting elements near promoter regions in rice”
The list shows a part of the results.

Molecular target: T1, OsSMF1 (Oryza sativa, UniProt Q6ZLB0 1-436)
T1 sequence: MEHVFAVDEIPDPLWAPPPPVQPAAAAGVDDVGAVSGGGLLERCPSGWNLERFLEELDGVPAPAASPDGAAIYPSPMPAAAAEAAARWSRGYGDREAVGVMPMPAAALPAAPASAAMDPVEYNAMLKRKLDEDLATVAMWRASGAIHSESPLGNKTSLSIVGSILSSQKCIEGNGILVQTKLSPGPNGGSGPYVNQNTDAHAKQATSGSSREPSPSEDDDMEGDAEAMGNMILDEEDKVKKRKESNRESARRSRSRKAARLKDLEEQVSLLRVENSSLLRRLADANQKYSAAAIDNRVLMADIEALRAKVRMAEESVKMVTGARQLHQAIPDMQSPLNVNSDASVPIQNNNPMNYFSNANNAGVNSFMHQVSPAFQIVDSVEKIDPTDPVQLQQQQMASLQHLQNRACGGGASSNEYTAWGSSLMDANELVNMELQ
Experiment: protein-binding microarray (RPBM); PBS, 2% BSA, 51.3 ng/ul salmon testes DNA, 50 uM zinc acetate, 200 nM TF, 25 C, 1 h; high values mean tight binding
Conditions: protein: recombinant; tags: N-terminal polyhistidine and DsRed monomer fusion (pET32a); chain copies: 2; label: CyDye5-dUTP incorporated in the synthesized complementary strand; 3' TTTTT single-stranded linker to array surface; dsDNA, one strand shown
Outline: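 The binding signal is fluorescence intensity per array feature (arbitrary units). Readings came from an Axon 4000B scanner after a washed, 2% BSA-blocked, double-stranded custom Agilent array had been incubated for 1 h at 25 °C with 200 nM protein and 50 µM zinc acetate. The protein was a Ni–NTA-purified transcription factor fused N-terminally to polyhistidine and DsRed, expressed in E. coli BL21-CodonPlus.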

Row | Sequence | binding signal
1 | ATCGTCATAGTCTTCGTCAGACTTCTATCTCGATCGCTTTCGGAGTCACCTAGTGCAG | 3680 fluorescence intensity (a.u.)
2 | TAAACAAGTTGCAATGGGCAAATGTCATACTGTCATCAACCGGAGTCACCTAGTGCAG | 3350 fluorescence intensity (a.u.)
3 | TAACTTTTCCGTTACATCAAATGTTTGGACACATGCATAGCGGAGTCACCTAGTGCAG | 22000 fluorescence intensity (a.u.)
4 | CTTTGAAATTGCGTAATATCAAAATTGCATCTATTTTATCCGGAGTCACCTAGTGCAG | 14700 fluorescence intensity (a.u.)
5 | ATTCACATCCCGGAAGCAGCTAACAAATTTCAGGGTAAAGCGGAGTCACCTAGTGCAG | 3370 fluorescence intensity (a.u.)
6 | ACAGGTCAAATATTCCGAAAGTAAAATGGCCAGCAAAGCACGGAGTCACCTAGTGCAG | 3190 fluorescence intensity (a.u.)
7 | CCCAACCAGCGACCGCGCCATCCTTGCGTCTTGCGTATCGCGGAGTCACCTAGTGCAG | 3180 fluorescence intensity (a.u.)
8 | GAATTTAGGGAGTAGCCTTGGTCATGGTCAAGTTCAGAAACGGAGTCACCTAGTGCAG | 3820 fluorescence intensity (a.u.)
9 | ACGTAATGACATGTAAAGCGTTATGTAGATGCCACGTGGACGGAGTCACCTAGTGCAG | 29400 fluorescence intensity (a.u.)
10 | TGTGAGGTGGGGTCGGGGTGGAAGTGGGTGAGGAGGGGTGCGGAGTCACCTAGTGCAG | 22700 fluorescence intensity (a.u.)
11 | TGGTATATATGCGTGTACACTTACGCCTGACCTTCTGACTCGGAGTCACCTAGTGCAG | 5640 fluorescence intensity (a.u.)
12 | CAGCCGCTGACTGTTAGTGGATTCTAGTAGTAGTTGTTTACGGAGTCACCTAGTGCAG | 4210 fluorescence intensity (a.u.)
13 | TACTACTTCCGATCAGAGCCATACCAATGCCACGACACGACGGAGTCACCTAGTGCAG | 4090 fluorescence intensity (a.u.)
14 | GGAGATAGAGAGAAGAGGTAGTGATGATGACGTGTGGGTCCGGAGTCACCTAGTGCAG | 9120 fluorescence intensity (a.u.)
15 | ATATATATAAGCTTTACCTTGCATTCCAAGCTTCGATCGACGGAGTCACCTAGTGCAG | 3160 fluorescence intensity (a.u.)
16 | CGAGAGCCCAGAAGCAGCAGCGATGTGTTGGATAAATCTGCGGAGTCACCTAGTGCAG | 39000 fluorescence intensity (a.u.)
17 | TCGGTGCAAATGACATTAGCGCATCTCCATTCACATCAGTCGGAGTCACCTAGTGCAG | 3220 fluorescence intensity (a.u.)
18 | CGGCGGCGACAGGCGCGCCTGCGAGCTCGCCGTCGTGGCGCGGAGTCACCTAGTGCAG | 3980 fluorescence intensity (a.u.)
19 | CGAGAGCGAGAGCCGTCTTGCCGGTGGCGGGCGGGCCGGCCGGAGTCACCTAGTGCAG | 32300 fluorescence intensity (a.u.)
20 | TCTCCCAGGCCACCATCGGCGTCCACATCCCGCCGTCCGCCGGAGTCACCTAGTGCAG | 3510 fluorescence intensity (a.u.)
21 | ATGCGTGCGCTCAGCCCATTCTGCTTGTATTTTCAGTACACGGAGTCACCTAGTGCAG | 3650 fluorescence intensity (a.u.)

Row | Sequence | binding signal
22 | CGTCAGCTTGTGCGCCGTCACCACGTAGTTCCACGGCCTCCGGAGTCACCTAGTGCAG | 3490 fluorescence intensity (a.u.)
23 | ATATATGTAGGAGAATGACAGAGTACTGGAGTCATCTACTCGGAGTCACCTAGTGCAG | 3510 fluorescence intensity (a.u.)
24 | ATACGATAAACCATGTGGATCTAGAATGTTGTAAAATTAACGGAGTCACCTAGTGCAG | 36400 fluorescence intensity (a.u.)
25 | TGAATGTCCCACCTAAGAAGACGCCAGACAGCTCTGAACACGGAGTCACCTAGTGCAG | 17100 fluorescence intensity (a.u.)
26 | CAGAACGTCTGTGTATGTGTACATGTACATGTGTGCACTCCGGAGTCACCTAGTGCAG | 3550 fluorescence intensity (a.u.)
27 | ACGGAGAATTGGCGATCTCCATAACTCCATGTCACCTCTACGGAGTCACCTAGTGCAG | 5010 fluorescence intensity (a.u.)
28 | TACACTTTATCCAAATTCGTAGTTTTAGGATGAGTCAGGTCGGAGTCACCTAGTGCAG | 9060 fluorescence intensity (a.u.)
29 | GCGTGCATATTTTGAGATGTGCTACTCTACTGCGTCAGCACGGAGTCACCTAGTGCAG | 6620 fluorescence intensity (a.u.)
30 | CGATGTATATATGTCAGAATCAGATGAGTTGTACAGTGAACGGAGTCACCTAGTGCAG | 3510 fluorescence intensity (a.u.)
31 | AATCCTCCATGACTCGAGTCTCTCCTCGGATTAGGATCTACGGAGTCACCTAGTGCAG | 4740 fluorescence intensity (a.u.)
32 | TAATGAACAAAGTCAGCTTCCTGTTCTGGACGACACTGTTCGGAGTCACCTAGTGCAG | 7970 fluorescence intensity (a.u.)
33 | GAGCACAATAGACAACACACCATCACTTACGCAGTTACACCGGAGTCACCTAGTGCAG | 3470 fluorescence intensity (a.u.)
34 | GAATCAACTGGTGGGGTTCACTAGAGACCATGCAATAGTTCGGAGTCACCTAGTGCAG | 3150 fluorescence intensity (a.u.)
35 | TTATGATGTAATTAGGCTCAAAAGATTCGTCTCGCAATTTCGGAGTCACCTAGTGCAG | 44200 fluorescence intensity (a.u.)
36 | GCTGGCGCTGGTGACGGCATCCATCCAAGAACTGCCTCCTCGGAGTCACCTAGTGCAG | 4210 fluorescence intensity (a.u.)
37 | CTAACTGGGTATGGATGATAGGTCACGCCGTCACGTGCCACGGAGTCACCTAGTGCAG | 4990 fluorescence intensity (a.u.)
38 | TGGACCAACAGCCACTGACACGGTGGGCCCCACGGAGACGCGGAGTCACCTAGTGCAG | 3590 fluorescence intensity (a.u.)
39 | AGGCGATCATTGCGTACGTTGCGCGCACCGCCTCGCCCTTCGGAGTCACCTAGTGCAG | 3420 fluorescence intensity (a.u.)
40 | TCAGTCTGCATTCATCGATGACATCATGGATGATGCATTGCGGAGTCACCTAGTGCAG | 7950 fluorescence intensity (a.u.)
41 | TCCTTCTTCTTCTCCTTCCTCACTGCAACACTCTTCGGGGCGGAGTCACCTAGTGCAG | 38900 fluorescence intensity (a.u.)
42 | TTTGAAGCATTGCTATTCATGACGTACCAACTCAGCACTCCGGAGTCACCTAGTGCAG | 7590 fluorescence intensity (a.u.)

Laid out differently: results already given.
CTAACTGGGTATGGATGATAGGTCACGCCGTCACGTGCCACGGAGTCACCTAGTGCAG
  binding signal = 4990 fluorescence intensity (a.u.)
TGGACCAACAGCCACTGACACGGTGGGCCCCACGGAGACGCGGAGTCACCTAGTGCAG
  binding signal = 3590 fluorescence intensity (a.u.)
